The list is a part of this screen's results and no random one: it gathers tests that were run many times, whatever their T/C, doses with no T/C, and many T/C values between a quarter and a half above the control. Other doses and runs of a compound stand elsewhere. T/C is the treated group as % of the vehicle group. Some doses have a count of surviving animals in place of a T/C: the source holds a T/C of zero for them, seemingly a mark for toxic or unscored doses. Some survivor counts are full or nearly so, which does not show that the dose was tolerated: the source hardly ever lists a survival T/C far under the control, and the zero likely stands for such cases as well. Survivors were counted at the toxicity check, usually on the fifth day, unless a day is given; later deaths do not show. Schedules are NCI's codes, taken here to give the interval after Q, in days (D) or hours (H), and the number of doses after X. Some entries were tested several times; the values are given in rising order. Brackets with × say how often a value occurs here. Where survival is the endpoint, the PubChem record calls one and a half times the control and up active, and a quarter to a half above the control has no call in these data; cut-offs in other NCI protocols can differ. Some T/C values carry the count of animals alive at the toxicity check (mostly the fifth day); without a count, all were alive then. Some schedule codes hold Z or #, which are not explained here.
Test system: L1210 leukemia ip in BDF1 mice, survival T/C
Test: NCI In Vivo Anticancer Drug Screen. Data for tumor model L1210 Leukemia (intraperitoneal) in B6D2F1 (BDF1) mice
Conditions: T/C endpoint: median survival time, higher T/C = longer survival

In the case of `COc1cccc2c1C(=O)c1c(O)c3c(c(O)c1C2=O)C[C@@](O)(C(=O)CO)C[C@@H]3OC1CC(N)C(O)C(C)O1` (some centres undefined), the T/C (dose: 1.8 mg/kg/injection, schedule: Q04DX003 (ip), vehicle: water, evaluated on day 40) is reported as 104 % of control, the T/C (dose: 1.8 mg/kg/injection, schedule: Q04DX003 (ip), vehicle: water, evaluated on day 60) is reported as 100 (3×), 104, 117, 125, 126 % of control and the T/C (dose: 1.8 mg/kg/injection, schedule: Q04DX003 (ip), vehicle: water, evaluated on day 90) is reported as 133 % of control. The survivor count (dose: 1.8 mg/kg/injection, schedule: Q04DX003 (ip), vehicle: water) was 1 of 8, the T/C (dose: 2.0 mg/kg/injection, schedule: Q01DX001 (ip), vehicle: saline, evaluated on day 5) was 118, 122, 131, 135, 137, 141, 146 % of control and the T/C (dose: 2.0 mg/kg/injection, schedule: Q01DX001 (ip), vehicle: saline, evaluated on day 30) was 137 % of control. The T/C (dose: 2.0 mg/kg/injection, schedule: Q01DX001 (ip), vehicle: saline, evaluated on day 60) was 122, 131, 134, 135, 146 % of control, the T/C (dose: 2.0 mg/kg/injection, schedule: Q01DX001 (ip), vehicle: water, evaluated on day 5) was 117 and 127 % of control and the T/C (dose: 2.0 mg/kg/injection, schedule: Q01DX001 (ip), vehicle: water, evaluated on day 21) was 117 % of control. The T/C (dose: 2.0 mg/kg/injection, schedule: Q01DX001 (ip), vehicle: water, evaluated on day 30) was 127 % of control, the T/C (dose: 2.0 mg/kg/injection, schedule: Q01DX009 (ip), vehicle: water) was 131 % of control and the T/C (dose: 2.0 mg/kg/injection, schedule: Q03HX008 (ip), vehicle: water, evaluated on day 5) was 60 % of control. For the same compound, the T/C (dose: 2.0 mg/kg/injection, schedule: Q03HX008 (ip), vehicle: water, evaluated on day 30) was 93 % of control [9 of 10 alive], the survivor count (dose: 2.0 mg/kg/injection, schedule: Q03HX008 (ip), vehicle: water) was 5 of 8 and 8 of 8 and the survivor count (dose: 2.0 mg/kg/injection, schedule: Q03HX024 (ip), vehicle: water) was 7 of 8 and 10 of 10. The T/C (dose: 2.0 mg/kg/injection, schedule: Q04DX003 (ip), vehicle: water) was 129 % of control, the T/C (dose: 2.0 mg/kg/injection, schedule: Q## X001 (ip), vehicle: saline) was 141 % of control and the T/C (dose: 2.0 mg/kg/injection, schedule: Q##DX001 (ip), vehicle: saline) was 134 % of control. The T/C (dose: 2.5 mg/kg/injection, schedule: Q01DX001 (ip), vehicle: water, evaluated on day 5) was 130 (2×) and 132 % of control, the T/C (dose: 2.5 mg/kg/injection, schedule: Q01DX001 (ip), vehicle: water, evaluated on day 30) was 118 and 122 % of control and the T/C (dose: 2.5 mg/kg/injection, schedule: Q01DX001 (ip), vehicle: water, evaluated on day 46) was 133 % of control. The T/C (dose: 2.5 mg/kg/injection, schedule: Q01DX001 (ip), vehicle: water, evaluated on day 61) was 126 % of control, the T/C (dose: 2.5 mg/kg/injection, schedule: Q04DX003 (ip), vehicle: water, evaluated on day 5) was 128 % of control and the T/C (dose: 2.5 mg/kg/injection, schedule: Q04DX003 (ip), vehicle: water, evaluated on day 46) was 127 % of control. For the same compound, the T/C (dose: 2.5 mg/kg/injection, schedule: Q04DX003 (ip), vehicle: water, evaluated on day 61) was 131 % of control, the T/C (dose: 2.5 mg/kg/injection, schedule: Q08DX002 (ip), vehicle: water, evaluated on day 30) was 125 % of control and the T/C (dose: 2.5 mg/kg/injection, schedule: Q08DX002 (ip), vehicle: water, evaluated on day 61) was 136 % of control. The T/C (dose: 3.0 mg/kg/injection, schedule: Q01DX001 (ip), vehicle: water, evaluated on day 7) was 107 and 118 % of control, the T/C (dose: 3.0 mg/kg/injection, schedule: Q01DX001 (ip), vehicle: water, evaluated on day 24) was 122 % of control and the T/C (dose: 3.0 mg/kg/injection, schedule: Q01DX001 (ip), vehicle: water, evaluated on day 30) was 107 and 130 % of control. The T/C (dose: 3.0 mg/kg/injection, schedule: Q01DX001 (ip), vehicle: water, evaluated on day 33) was 127 % of control, the T/C (dose: 3.0 mg/kg/injection, schedule: Q01DX001 (ip), vehicle: water, evaluated on day 60) was 95 and 118 % of control and the T/C (dose: 3.0 mg/kg/injection, schedule: Q01DX005 (ip), vehicle: water, evaluated on day 5) was 96 % of control. The T/C (dose: 3.0 mg/kg/injection, schedule: Q01DX005 (ip), vehicle: water, evaluated on day 60) was 96 % of control, the T/C (dose: 3.0 mg/kg/injection, schedule: Q01DX005 (ip), vehicle: water, evaluated on day 90) was 122 % of control and the survivor count (dose: 3.0 mg/kg/injection, schedule: Q01DX005 (ip), vehicle: water) was 10 of 10 and 8 of 8. For the same compound, the T/C (dose: 3.0 mg/kg/injection, schedule: Q01DX005 (sc), vehicle: water) was 130 % of control, the survivor count (dose: 3.0 mg/kg/injection, schedule: Q01DX009 (ip), vehicle: water) was 8 of 8 and the T/C (dose: 3.0 mg/kg/injection, schedule: Q03HX008 (ip), vehicle: water, evaluated on day 5) was 35, 51 (2×), 59, 68, 73 (3×), 75 % of control. The T/C (dose: 3.0 mg/kg/injection, schedule: Q03HX008 (ip), vehicle: water, evaluated on day 7) was 99, 105 (2×), 110, 119 % of control, the T/C (dose: 3.0 mg/kg/injection, schedule: Q03HX008 (ip), vehicle: water, evaluated on day 20) was 105 % of control and the T/C (dose: 3.0 mg/kg/injection, schedule: Q03HX008 (ip), vehicle: water, evaluated on day 30) was 110 % of control. The T/C (dose: 3.0 mg/kg/injection, schedule: Q03HX008 (ip), vehicle: water, evaluated on day 32) was 99 % of control, the T/C (dose: 3.0 mg/kg/injection, schedule: Q03HX008 (ip), vehicle: water, evaluated on day 60) was 95 and 119 % of control [7 of 8 alive] and the T/C (dose: 3.0 mg/kg/injection, schedule: Q03HX008 (ip), vehicle: water, evaluated on day 63) was 105 % of control. The survivor count (dose: 3.0 mg/kg/injection, schedule: Q03HX008 (ip), vehicle: water) was 0 of 8 (2×), 2 of 8, 4 of 8, 6 of 8 (2×), 7 of 8 (3×), 8 of 8 (2×), the survivor count (dose: 3.0 mg/kg/injection, schedule: Q03HX008 (sc), vehicle: water) was 8 of 8 and the T/C (dose: 3.0 mg/kg/injection, schedule: Q03HX016 (ip), vehicle: water, evaluated on day 5) was 64 % of control. The T/C (dose: 3.0 mg/kg/injection, schedule: Q03HX016 (ip), vehicle: water, evaluated on day 60) was 100 % of control, the survivor count (dose: 3.0 mg/kg/injection, schedule: Q03HX016 (ip), vehicle: water) was 4 of 8 and 5 of 8 and the T/C (dose: 3.0 mg/kg/injection, schedule: Q03HX024 (ip), vehicle: water, evaluated on day 7) was 108 and 109 % of control. The T/C (dose: 3.0 mg/kg/injection, schedule: Q03HX024 (ip), vehicle: water, evaluated on day 32) was 109 % of control, the T/C (dose: 3.0 mg/kg/injection, schedule: Q03HX024 (ip), vehicle: water, evaluated on day 60) was 100 % of control and the T/C (dose: 3.0 mg/kg/injection, schedule: Q03HX024 (ip), vehicle: water, evaluated on day 63) was 105 % of control.

Reference: PubChem BioAssay AID248 (DTP/NCI, 2004)
